± gives the standard deviation of the averaged measurements. The entries are a selection whose mix differs from that of the whole data set. Small differences around the control level are noise.
Compound: Nc1ncnc2c1ncn2[C@@H]1O[C@H](COP(=O)(O)OP(=O)(O)NP(=O)(O)O)[C@@H](O)[C@H]1O [adenylyl imidodiphosphate]
Test: NP40-soluble protein abundance relative to vehicle (solubility fold change) (ratio); higher = more soluble protein in presence of AMP-PNP
Method in brief: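 Jurkat crude lysate prepared with a Dounce homogeniser was treated at eight concentrations spanning 0.1 to 10 mM, 10 min at room temperature then 3 min at 37 °C. Solubilisation with 0.8% NP40 and benzonase and ultracentrifugation preceded TMT labelling of the supernatant for LC-MS/MS. Fold change against the detergent-processed vehicle was determined per replicate from vsn-normalised intensities, across three independent experiments.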

By UniProt entry, the sequences of proteins in these tests, tags left out. Where a name states a change or a piece, a line headed by the entry shows the natural chain unless it says otherwise.
UniProt Q14978: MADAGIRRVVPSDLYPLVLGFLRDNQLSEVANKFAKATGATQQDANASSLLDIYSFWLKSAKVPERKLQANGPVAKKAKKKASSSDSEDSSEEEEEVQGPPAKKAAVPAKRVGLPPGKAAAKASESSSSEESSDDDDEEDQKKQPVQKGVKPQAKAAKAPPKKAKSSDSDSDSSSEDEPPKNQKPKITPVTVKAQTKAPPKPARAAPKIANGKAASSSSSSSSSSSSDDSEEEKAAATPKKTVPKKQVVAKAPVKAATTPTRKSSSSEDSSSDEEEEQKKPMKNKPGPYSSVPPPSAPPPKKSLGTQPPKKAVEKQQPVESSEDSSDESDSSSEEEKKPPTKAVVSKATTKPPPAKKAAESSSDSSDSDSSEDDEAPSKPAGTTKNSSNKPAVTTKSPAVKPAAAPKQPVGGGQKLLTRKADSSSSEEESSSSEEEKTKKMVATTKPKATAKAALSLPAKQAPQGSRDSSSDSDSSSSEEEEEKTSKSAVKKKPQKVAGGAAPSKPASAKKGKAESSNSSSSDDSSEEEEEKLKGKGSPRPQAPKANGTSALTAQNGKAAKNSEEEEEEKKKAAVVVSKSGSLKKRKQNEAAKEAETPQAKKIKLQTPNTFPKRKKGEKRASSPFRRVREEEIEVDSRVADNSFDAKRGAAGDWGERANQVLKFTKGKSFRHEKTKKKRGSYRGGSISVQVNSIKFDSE
UniProt P04179: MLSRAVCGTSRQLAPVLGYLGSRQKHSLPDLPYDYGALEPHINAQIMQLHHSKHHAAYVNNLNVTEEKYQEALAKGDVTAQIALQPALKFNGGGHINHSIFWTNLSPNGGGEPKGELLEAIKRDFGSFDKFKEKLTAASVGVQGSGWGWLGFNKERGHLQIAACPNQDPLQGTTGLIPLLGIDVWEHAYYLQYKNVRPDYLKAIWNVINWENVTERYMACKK
UniProt Q8IW50: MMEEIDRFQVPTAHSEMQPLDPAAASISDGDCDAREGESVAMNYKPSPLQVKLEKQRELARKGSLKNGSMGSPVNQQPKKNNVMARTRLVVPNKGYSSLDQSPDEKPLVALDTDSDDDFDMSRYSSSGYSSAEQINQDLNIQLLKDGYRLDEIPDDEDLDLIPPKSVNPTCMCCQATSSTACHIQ
UniProt Q9P2K5: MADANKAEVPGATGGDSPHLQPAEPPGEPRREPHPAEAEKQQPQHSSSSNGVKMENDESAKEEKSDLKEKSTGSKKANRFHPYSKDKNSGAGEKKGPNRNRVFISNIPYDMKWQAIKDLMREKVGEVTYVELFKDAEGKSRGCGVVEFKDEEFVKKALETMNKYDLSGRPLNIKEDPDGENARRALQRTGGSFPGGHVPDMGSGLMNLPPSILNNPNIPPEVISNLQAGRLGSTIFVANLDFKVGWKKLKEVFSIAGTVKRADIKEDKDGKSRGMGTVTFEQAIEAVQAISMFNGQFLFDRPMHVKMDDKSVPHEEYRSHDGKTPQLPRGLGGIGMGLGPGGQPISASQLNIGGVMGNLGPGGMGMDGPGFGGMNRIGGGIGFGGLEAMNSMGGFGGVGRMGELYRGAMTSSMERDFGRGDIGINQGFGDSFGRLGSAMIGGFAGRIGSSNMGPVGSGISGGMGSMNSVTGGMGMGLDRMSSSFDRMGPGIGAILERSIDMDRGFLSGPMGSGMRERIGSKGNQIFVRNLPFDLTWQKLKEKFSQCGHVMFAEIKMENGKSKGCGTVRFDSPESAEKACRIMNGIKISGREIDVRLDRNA
UniProt Q9Y4K1: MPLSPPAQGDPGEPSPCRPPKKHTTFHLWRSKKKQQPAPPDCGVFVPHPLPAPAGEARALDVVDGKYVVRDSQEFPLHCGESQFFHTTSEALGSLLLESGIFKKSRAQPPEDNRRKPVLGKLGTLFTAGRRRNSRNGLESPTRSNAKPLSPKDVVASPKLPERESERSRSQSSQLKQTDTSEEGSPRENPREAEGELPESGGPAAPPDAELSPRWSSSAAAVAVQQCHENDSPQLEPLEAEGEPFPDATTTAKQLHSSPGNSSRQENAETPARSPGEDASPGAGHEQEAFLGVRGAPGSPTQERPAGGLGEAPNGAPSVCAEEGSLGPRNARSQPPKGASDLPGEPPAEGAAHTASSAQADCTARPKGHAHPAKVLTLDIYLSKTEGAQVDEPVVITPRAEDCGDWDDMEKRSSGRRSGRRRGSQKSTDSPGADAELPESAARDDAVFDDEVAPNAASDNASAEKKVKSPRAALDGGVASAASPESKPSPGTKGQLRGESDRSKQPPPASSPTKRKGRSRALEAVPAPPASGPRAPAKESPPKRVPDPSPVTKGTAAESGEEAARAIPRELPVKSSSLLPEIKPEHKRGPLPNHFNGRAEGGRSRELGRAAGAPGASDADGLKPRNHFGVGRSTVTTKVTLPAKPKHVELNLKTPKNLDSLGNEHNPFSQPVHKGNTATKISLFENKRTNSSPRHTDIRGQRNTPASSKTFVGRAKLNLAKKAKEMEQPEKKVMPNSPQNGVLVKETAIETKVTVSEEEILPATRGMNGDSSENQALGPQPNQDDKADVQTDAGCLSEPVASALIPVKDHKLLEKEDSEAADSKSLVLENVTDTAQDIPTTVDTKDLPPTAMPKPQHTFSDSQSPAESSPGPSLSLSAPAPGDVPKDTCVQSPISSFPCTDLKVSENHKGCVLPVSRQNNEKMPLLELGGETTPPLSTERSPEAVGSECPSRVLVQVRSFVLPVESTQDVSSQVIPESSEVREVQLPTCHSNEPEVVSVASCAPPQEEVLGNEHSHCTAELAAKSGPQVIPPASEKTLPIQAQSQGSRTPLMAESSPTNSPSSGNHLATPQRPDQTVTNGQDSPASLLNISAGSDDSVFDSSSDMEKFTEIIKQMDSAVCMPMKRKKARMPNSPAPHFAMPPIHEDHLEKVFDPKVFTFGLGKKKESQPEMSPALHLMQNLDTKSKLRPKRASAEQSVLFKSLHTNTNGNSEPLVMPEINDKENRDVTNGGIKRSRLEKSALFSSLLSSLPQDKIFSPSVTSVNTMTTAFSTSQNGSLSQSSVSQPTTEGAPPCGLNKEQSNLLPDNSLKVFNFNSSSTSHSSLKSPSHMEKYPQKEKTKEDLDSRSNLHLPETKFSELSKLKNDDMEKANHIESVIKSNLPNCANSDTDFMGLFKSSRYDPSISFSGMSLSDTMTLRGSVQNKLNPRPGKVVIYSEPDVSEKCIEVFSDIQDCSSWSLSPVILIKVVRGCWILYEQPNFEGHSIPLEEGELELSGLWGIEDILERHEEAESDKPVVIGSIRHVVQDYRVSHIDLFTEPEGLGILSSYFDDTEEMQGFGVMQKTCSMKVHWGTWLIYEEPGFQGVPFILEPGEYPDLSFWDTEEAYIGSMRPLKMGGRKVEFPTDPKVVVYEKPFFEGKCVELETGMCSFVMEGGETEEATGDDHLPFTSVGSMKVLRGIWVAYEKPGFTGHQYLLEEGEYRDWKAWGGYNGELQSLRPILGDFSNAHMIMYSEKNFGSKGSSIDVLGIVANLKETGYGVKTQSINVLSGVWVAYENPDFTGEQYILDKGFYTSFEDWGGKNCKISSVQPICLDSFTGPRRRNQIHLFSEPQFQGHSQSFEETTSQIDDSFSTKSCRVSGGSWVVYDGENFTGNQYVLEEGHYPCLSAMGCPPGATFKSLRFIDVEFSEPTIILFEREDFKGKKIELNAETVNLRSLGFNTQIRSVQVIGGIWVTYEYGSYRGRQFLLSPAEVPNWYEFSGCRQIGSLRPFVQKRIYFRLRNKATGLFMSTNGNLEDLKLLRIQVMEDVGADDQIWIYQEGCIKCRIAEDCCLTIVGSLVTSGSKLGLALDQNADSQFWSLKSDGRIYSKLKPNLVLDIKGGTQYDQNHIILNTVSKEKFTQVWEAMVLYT
UniProt P48200: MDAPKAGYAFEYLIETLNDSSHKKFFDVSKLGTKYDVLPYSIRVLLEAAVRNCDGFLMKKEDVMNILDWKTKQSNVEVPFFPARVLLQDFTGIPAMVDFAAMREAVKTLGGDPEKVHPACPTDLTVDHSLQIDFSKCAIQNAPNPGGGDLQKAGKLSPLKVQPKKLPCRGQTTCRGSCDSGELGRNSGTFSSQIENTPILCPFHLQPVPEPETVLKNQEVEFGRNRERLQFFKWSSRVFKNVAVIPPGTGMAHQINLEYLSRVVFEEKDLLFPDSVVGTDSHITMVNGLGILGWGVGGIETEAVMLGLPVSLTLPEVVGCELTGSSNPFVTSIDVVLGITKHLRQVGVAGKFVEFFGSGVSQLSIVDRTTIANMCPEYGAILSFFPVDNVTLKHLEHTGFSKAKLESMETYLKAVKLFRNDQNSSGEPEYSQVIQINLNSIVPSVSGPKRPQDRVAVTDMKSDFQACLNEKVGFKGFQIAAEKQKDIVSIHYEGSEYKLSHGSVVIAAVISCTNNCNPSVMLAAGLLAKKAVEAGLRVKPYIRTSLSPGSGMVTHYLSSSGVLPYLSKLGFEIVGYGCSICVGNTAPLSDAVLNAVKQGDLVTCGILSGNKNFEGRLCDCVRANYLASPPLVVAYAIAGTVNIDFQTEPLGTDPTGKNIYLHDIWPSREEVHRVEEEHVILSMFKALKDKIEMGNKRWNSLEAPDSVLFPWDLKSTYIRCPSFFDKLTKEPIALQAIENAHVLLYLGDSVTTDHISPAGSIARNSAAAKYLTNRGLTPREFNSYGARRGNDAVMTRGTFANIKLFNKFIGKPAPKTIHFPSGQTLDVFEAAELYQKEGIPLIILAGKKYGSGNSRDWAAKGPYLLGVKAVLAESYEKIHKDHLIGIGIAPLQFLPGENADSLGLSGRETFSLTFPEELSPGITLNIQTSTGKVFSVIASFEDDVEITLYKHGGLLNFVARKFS
UniProt Q9Y4X4: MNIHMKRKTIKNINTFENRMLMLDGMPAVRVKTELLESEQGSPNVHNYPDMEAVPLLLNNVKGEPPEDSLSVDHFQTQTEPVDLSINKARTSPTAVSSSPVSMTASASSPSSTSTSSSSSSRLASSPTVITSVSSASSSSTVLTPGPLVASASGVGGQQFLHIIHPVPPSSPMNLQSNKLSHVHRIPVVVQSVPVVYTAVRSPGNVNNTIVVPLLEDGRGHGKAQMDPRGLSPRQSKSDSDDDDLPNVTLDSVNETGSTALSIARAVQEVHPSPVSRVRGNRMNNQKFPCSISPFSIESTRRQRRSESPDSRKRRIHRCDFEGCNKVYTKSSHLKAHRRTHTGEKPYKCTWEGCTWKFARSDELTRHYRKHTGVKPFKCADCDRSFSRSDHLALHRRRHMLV
UniProt P20810: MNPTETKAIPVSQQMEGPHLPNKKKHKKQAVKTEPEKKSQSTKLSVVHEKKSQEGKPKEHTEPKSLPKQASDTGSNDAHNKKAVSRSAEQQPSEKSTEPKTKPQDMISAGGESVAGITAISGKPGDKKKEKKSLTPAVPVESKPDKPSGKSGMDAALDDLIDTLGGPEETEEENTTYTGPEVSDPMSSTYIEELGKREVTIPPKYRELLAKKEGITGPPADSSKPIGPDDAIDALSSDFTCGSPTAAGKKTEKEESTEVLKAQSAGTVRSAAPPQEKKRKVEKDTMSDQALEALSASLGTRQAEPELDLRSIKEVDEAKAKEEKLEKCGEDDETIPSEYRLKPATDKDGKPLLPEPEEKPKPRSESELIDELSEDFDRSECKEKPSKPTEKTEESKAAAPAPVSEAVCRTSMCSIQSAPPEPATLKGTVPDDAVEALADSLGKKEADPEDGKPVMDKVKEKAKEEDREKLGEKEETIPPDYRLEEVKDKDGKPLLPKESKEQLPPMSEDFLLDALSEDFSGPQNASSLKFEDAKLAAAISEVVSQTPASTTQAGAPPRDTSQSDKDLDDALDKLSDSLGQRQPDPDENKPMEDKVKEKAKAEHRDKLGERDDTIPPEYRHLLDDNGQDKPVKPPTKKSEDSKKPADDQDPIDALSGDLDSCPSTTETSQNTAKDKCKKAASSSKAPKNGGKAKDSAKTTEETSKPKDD
UniProt O95299, whole entry: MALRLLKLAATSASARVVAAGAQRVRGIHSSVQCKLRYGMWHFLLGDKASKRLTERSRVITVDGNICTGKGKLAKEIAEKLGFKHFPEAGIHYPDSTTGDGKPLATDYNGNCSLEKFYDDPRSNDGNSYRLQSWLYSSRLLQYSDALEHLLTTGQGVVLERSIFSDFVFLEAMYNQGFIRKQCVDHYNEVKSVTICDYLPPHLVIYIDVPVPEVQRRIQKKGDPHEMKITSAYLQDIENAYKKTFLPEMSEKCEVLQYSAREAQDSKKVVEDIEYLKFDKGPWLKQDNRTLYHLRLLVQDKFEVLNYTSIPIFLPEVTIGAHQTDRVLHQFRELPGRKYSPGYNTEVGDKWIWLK
UniProt Q9H469: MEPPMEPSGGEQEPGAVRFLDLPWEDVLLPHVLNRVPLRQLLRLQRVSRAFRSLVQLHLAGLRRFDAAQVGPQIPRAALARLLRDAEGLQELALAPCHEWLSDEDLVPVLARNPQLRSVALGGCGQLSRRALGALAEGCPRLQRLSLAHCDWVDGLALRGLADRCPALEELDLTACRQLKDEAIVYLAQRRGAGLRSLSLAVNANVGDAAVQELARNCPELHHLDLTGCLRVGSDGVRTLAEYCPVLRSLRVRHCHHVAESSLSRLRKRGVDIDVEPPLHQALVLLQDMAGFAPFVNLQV

Target	NP40-soluble protein abundance (concentration: 0.1mM)	NP40-soluble protein abundance (concentration: 0.5mM)
A0A0A0MRF6|Q99996 and related entries (UniProt Q99996)	1.02 ± 0.016	1 ± 0.043
A0A0A0MQR1|Q9Y4K4 (UniProt Q9Y4K4)	0.988 ± 0.014	0.992 ± 0.031
A0A0A0MRN1|Q5T8I9 (UniProt Q5T8I9)	0.993 ± 0.0044	1.006 ± 0.0095
A0A087X020|Q9Y3A5 (UniProt Q9Y3A5)	1.02 ± 0.045	0.97 ± 0.031
A0A087X0R6|Q9UMY4 and related entries (UniProt Q9UMY4)	1.11 ± 0.063	1.07 ± 0.029
A0A0C4DGS1|P39656 (UniProt P39656)	1.02 ± 0.052	0.948 ± 0.14
A0A087WZV8|A0A0G2JN66 (UniProt P01850)	1.08 ± 0.042	1.01 ± 0.072
A0A0A0MRM9|Q14978-2|Q14978 and related entries (UniProt Q14978)	0.933 ± 0.013	1.06 ± 0.085
A0A0A0MTH3|Q13418 (UniProt Q13418)	1.007 ± 0.0092	0.984 ± 0.03
A0A0A0MSS8|P42330 (UniProt P42330)	1.04 ± 0.052	1.03 ± 0.02
A0A0C4DFU2|P04179 and related entries (UniProt P04179)	0.976 ± 0.051	1.01 ± 0.067
A0A0U1RQT7|A0A0U1RQY7|Q8IXA3 and related entries (UniProt Q9HCP0)	1.01 ± 0.027	1.04 ± 0.042
UniProt A0FGR8-2|H7BXI1	1.01 ± 0.016	1 ± 0.057
A0A087WWM4|F8WAN9 and related entries (UniProt Q9P2T1)	1.01 ± 0.035	1.04 ± 0.043
A0A0A0MSB8|Q9UPT5 and related entries (UniProt Q9UPT5)	0.994 ± 0.014	0.9853 ± 0.0055
A0A0A0MRE5|Q9ULH1 and related entries (UniProt Q9ULH1)	0.968 ± 0.018	0.988 ± 0.031
A0A0A0MRW1|Q5T593 and related entries (UniProt Q8IW50)	0.942 ± 0.027	0.969 ± 0.034
A0A0D9SGJ6|J3KQV8 and related entries (UniProt O43426)	0.989 ± 0.041	0.965 ± 0.08
A0A0B4J2A0|Q9UHJ6 (UniProt Q9UHJ6)	1.02 ± 0.029	1.003 ± 0.008
A0A087WXF8|A0A087WXU5|A0A087WYF0|A0A0D9SEW3|E7EPF0 and related entries (UniProt Q9NP64)	0.966 ± 0.032	0.989 ± 0.015
A0A0C4DGH3|Q9Y6R0 (UniProt Q9Y6R0)	0.994 ± 0.051	0.995 ± 0.11
A0A087X142|A6NFQ9 and related entries (UniProt Q92599)	0.98 ± 0.025	0.989 ± 0.024

Target	NP40-soluble protein abundance (concentration: 0.1mM)	NP40-soluble protein abundance (concentration: 0.5mM)
A0A087WXR2|F5H1Z6 and related entries (UniProt Q9Y365)	1.01 ± 0.033	1.03 ± 0.053
A0A0D9SF44|A0A0R4J2E2|Q9Y3T6 (UniProt Q9Y3T6)	0.989 ± 0.051	0.989 ± 0.017
A2A274 and related entries (UniProt Q99798)	1.012 ± 0.0089	0.975 ± 0.032
A0A0A0MR39|Q9P2K5-3|A0A0A0MQW0 (UniProt Q9P2K5)	1.02 ± 0.043	1.02 ± 0.052
A0A0A0MSA9|A0A0C4DG49|P15151 and related entries (UniProt P15151)	0.9738 ± 0.0023	1.04 ± 0.042
A0A0A0MT72|Q9BSQ5 and related entries (UniProt Q9BSQ5)	0.982 ± 0.018	0.971 ± 0.013
A0A0A0MR51|O60427 (UniProt O60427)	1.03 ± 0.017	1.01 ± 0.05
A0A0A0MTD9|A0A0A0MTE6|A0A0B4J1S7|E9PMT0 and related entries (UniProt Q9Y2R2)	0.992 ± 0.045	1.01 ± 0.019
A0A087WXV6|Q96G74 and related entries (UniProt Q96G74)	0.999 ± 0.013	1.01 ± 0.054
A0A0A0MQT4|Q5QP82 and related entries (UniProt Q5QP82)	0.983 ± 0.019	0.98 ± 0.013
A0A0C4DH44|P62888 (UniProt P62888)	1.02 ± 0.051	1 ± 0.019
A0A087WZE9 (UniProt Q15651)	1.039 ± 0.0021	1.03 ± 0.056
A0A0A0MRT6|B6VEX4 and related entries (UniProt Q8IZP0)	1.04 ± 0.013	1.04 ± 0.054
A0A0G2JPT5|O75943 and related entries (UniProt O75943)	0.9944 ± 0.0034	0.984 ± 0.034
A0A0J9YWL0|Q9Y4K1 (UniProt Q9Y4K1)	1.01 ± 0.029	1.01 ± 0.022
A0A0A6YY96|P48200 (UniProt P48200)	0.996 ± 0.04	1.01 ± 0.074
A0A0A0MRE6|O94967 and related entries (UniProt O94967)	1 ± 0.04	0.97 ± 0.051
A0A0A6YYL4|P57737-3 (UniProt P57737)	1.03 ± 0.022	1 ± 0.025
A0A0A6YYA7|Q12851 and related entries (UniProt Q12851)	0.944 ± 0.012	0.985 ± 0.03
A0A087WYP2|Q8IZQ5 (UniProt Q8IZQ5)	1.01 ± 0.028	1.02 ± 0.018
A0A087X188|Q9UBW5 (UniProt Q9UBW5)	0.995 ± 0.035	0.998 ± 0.035
A0A0A0MSY9|Q92800 and related entries (UniProt Q92800)	0.995 ± 0.031	0.988 ± 0.02

Quoted at random: four records from the list.
Target	NP40-soluble protein abundance (concentration: 0.1mM)	NP40-soluble protein abundance (concentration: 0.5mM)
A0A0J9YWL0|Q9Y4K1 (UniProt Q9Y4K1)	1.01 ± 0.029	1.01 ± 0.022
A0A0A6YY96|P48200 (UniProt P48200)	0.996 ± 0.04	1.01 ± 0.074
A0A0A0MR39|Q9P2K5-3|A0A0A0MQW0 (UniProt Q9P2K5)	1.02 ± 0.043	1.02 ± 0.052
A0A087WXR2|F5H1Z6 and related entries (UniProt Q9Y365)	1.01 ± 0.033	1.03 ± 0.053

Carrying on:

Target	NP40-soluble protein abundance (concentration: 0.1mM)	NP40-soluble protein abundance (concentration: 0.5mM)
A0A0A0MRU8|Q9Y4X4 (UniProt Q9Y4X4)	1 ± 0.013	1.004 ± 0.0068
A0A0C4DGW2|P57768 and related entries (UniProt P57768)	0.996 ± 0.016	1.01 ± 0.04
A0A087WYU1|A0A087WZW2|Q9Y5X1 (UniProt Q9Y5X1)	0.997 ± 0.03	1.06 ± 0.012
UniProt A0MZ66 and related entries	0.9639 ± 0.0025	1 ± 0.041
A0A087X1I8|Q7Z3E5 and related entries (UniProt Q7Z3E5)	1 ± 0.037	0.986 ± 0.03
A0A0U1RRB6|Q9Y2D4 (UniProt Q9Y2D4)	1.01 ± 0.017	0.99 ± 0.037
A0A087X0M0|Q7Z5L2 and related entries (UniProt Q7Z5L2)	0.97 ± 0.032	0.968 ± 0.025
A0A0C4DH01|Q9NVU0 and related entries (UniProt Q9NVU0)	1.02 ± 0.042	1.01 ± 0.036
A0A087WYS9|Q15526 and related entries (UniProt Q15526)	0.9743 ± 0.0087	1.03 ± 0.027
A0A087X112|Q9H9A7 (UniProt Q9H9A7)	1.02 ± 0.018	1 ± 0.024
A0A087WWS1|Q96FV9 (UniProt Q96FV9)	1.19 ± 0.051	1.25 ± 0.084
A0A140T9T7|Q03518 (UniProt Q03518)	1.03 ± 0.024	1.02 ± 0.044
A0A0C4DGS5|B7ZC06 and related entries (UniProt Q08379)	1.01 ± 0.038	1.01 ± 0.028
A0A0J9YYJ0|Q8N129 (UniProt Q8N129)	1.025 ± 0.0071	1.02 ± 0.016
A0A087WW84|Q14114 and related entries (UniProt Q14114)	0.993 ± 0.024	0.984 ± 0.043
A0A0A0MSJ9|Q15283 and related entries (UniProt Q15283)	1.014 ± 0.0093	0.994 ± 0.037
A0A087WZ13|E9PAU2 (UniProt Q8IY67)	1.07 ± 0.078	0.989 ± 0.024
A0A0C4DGB5|P20810-10|P20810-6 (UniProt P20810)	0.953 ± 0.023	1.01 ± 0.061
A0A087X0M4|Q9BWU0 (UniProt Q9BWU0)	0.971 ± 0.024	0.979 ± 0.013
A0A087X1G7|A0A0B4J1S4|O60613 (UniProt O60613)	1.02 ± 0.051	1.02 ± 0.022
A0A0C4DFM7|Q5TAX3 (UniProt Q5TAX3)	0.977 ± 0.019	0.993 ± 0.053
A0A087X0Q1|Q7Z739 (UniProt Q7Z739)	0.986 ± 0.023	1 ± 0.047

Target	NP40-soluble protein abundance (concentration: 0.1mM)	NP40-soluble protein abundance (concentration: 0.5mM)
A0A0G2JNW7|Q9Y666 (UniProt Q9Y666)	0.99 ± 0.012	0.9769 ± 0.0065
A0A0C4DG40|Q8NF91 and related entries (UniProt Q8NF91)	0.97 ± 0.02	0.951 ± 0.02
A0A0U1RQQ9|Q6P3W7 (UniProt Q6P3W7)	0.998 ± 0.018	1 ± 0.029
A0A0C4DG89|Q7L014 (UniProt Q7L014)	0.9952 ± 0.0038	0.9912 ± 0.0078
A0A0A0MSE9|B7WPA5 and related entries (UniProt Q96CS7)	1 ± 0.011	0.988 ± 0.014
A0A087WYW3|P30414 (UniProt P30414)	0.996 ± 0.04	1.02 ± 0.013
A0A087X060|G3V2W9 and related entries (UniProt Q56P03)	0.99 ± 0.018	0.9924 ± 0.0052
A0A087X0R0|F5H6S1 and related entries (UniProt O15550)	0.985 ± 0.0055	0.9711 ± 0.0061
A0A0A0MQU0|Q9BV38 and related entries (UniProt Q9BV38)	1.05 ± 0.074	0.984 ± 0.064
A0A0A0MTG1|A0A0G2JIA5|A0A140T8Y0|A0A140TA35|A0A140TA36|A0A140TA40|A0A140TA45|Q5ST30 and related entries (UniProt Q5ST30)	1 ± 0.021	0.9976 ± 0.0096
A0A0G2JJD3|O95870 and related entries (UniProt O95870)	1.01 ± 0.02	0.97 ± 0.056
A0A087WXC5|E7ESZ7 and related entries (UniProt O95299)	0.9952 ± 0.0078	1.01 ± 0.048
A0A087WZX2|O95139 (UniProt O95139)	1.006 ± 0.0031	1.04 ± 0.083
A0A087X159|P81877 and related entries (UniProt P81877)	0.993 ± 0.039	0.997 ± 0.031
A0A0C4DFV0|Q9H469 (UniProt Q9H469)	0.9786 ± 0.0029	0.985 ± 0.017
A0A087WZN1|O43837 (UniProt O43837)	0.984 ± 0.025	1 ± 0.051
A0A0B4J2E5|Q15269 (UniProt Q15269)	1.04 ± 0.024	1.03 ± 0.054
A0A087WY71|Q96CW1 and related entries (UniProt Q96CW1)	1.09 ± 0.032	1.03 ± 0.1
A0A087WXM6|A0A0A6YYL6|J3KRX5 and related entries (UniProt P18621)	1.04 ± 0.032	1.004 ± 0.0069
A0A0A0MSY7|E5KNQ5 and related entries (UniProt O00142)	1.01 ± 0.053	0.991 ± 0.044
A0A0A0MRU0|A0A0C4DH75|A0A0D9SFF8|B4DZ84 and related entries (UniProt Q14168)	0.968 ± 0.036	0.949 ± 0.025
A0A0A0MT40|H3BUD4 and related entries (UniProt Q15111)	0.96 ± 0.018	0.977 ± 0.044
